Source: paper doi:10.1101/2020.06.18.159293

What was measured:
Test in all cases: proximity labelling
[1] = target: C-terminally FLAG-tagged full-length ULK4 (ULK4-BirA*Flag) (human) (UniProt Q96C45)
[2] = target: N- and C-terminally FlagBirA* tagged full length ULK4 (BioID baits, hits pooled) (human) (UniProt Q96C45)
[3] = target: N-terminally FLAG-tagged ULK4 (FlagBirA*-ULK4) (human) (UniProt Q96C45)
[4] = target: T1, ULK4 R39 variant (BioID bait) (human) (UniProt Q96C45)
T1 sequence: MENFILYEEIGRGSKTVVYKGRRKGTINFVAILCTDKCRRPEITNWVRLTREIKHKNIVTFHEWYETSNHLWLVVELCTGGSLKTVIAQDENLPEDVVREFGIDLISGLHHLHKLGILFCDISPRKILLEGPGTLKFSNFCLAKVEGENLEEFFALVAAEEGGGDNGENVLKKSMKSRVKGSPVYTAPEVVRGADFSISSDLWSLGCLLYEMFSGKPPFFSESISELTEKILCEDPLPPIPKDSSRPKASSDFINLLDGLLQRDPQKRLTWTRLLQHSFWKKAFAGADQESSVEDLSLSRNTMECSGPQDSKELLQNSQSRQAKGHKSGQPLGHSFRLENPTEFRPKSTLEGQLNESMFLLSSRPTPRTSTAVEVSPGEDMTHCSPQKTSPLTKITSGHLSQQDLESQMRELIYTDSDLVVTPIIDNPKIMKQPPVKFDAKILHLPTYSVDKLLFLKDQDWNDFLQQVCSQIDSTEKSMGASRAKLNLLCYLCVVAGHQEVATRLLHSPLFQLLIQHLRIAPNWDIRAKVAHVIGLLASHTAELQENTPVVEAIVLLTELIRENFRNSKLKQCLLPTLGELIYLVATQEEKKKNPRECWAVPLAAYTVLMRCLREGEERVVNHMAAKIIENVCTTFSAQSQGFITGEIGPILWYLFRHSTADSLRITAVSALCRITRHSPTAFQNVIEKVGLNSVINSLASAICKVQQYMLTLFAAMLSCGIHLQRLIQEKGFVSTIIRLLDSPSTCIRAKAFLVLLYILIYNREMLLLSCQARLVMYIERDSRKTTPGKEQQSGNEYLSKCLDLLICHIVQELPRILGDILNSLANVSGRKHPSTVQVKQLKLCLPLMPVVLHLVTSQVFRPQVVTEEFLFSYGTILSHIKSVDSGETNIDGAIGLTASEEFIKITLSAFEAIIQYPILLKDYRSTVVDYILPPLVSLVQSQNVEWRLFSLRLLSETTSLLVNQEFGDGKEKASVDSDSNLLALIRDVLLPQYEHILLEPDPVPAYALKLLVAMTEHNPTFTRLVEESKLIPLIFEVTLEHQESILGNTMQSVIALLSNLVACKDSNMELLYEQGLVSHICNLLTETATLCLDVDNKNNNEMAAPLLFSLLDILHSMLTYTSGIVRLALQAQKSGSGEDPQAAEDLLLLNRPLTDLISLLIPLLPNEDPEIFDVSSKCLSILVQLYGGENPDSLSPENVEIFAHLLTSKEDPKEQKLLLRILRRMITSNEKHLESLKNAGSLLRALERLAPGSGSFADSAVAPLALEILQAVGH

binding [1]: binds | binding [2]: binds | binding [3]: binds | binding [4]: binds
B1: PTPN14 (protein tyrosine phosphatase, non-receptor type 14) (protein, UniProt Q15678 1-1187)
chain: MPFGLKLRRTRRYNVLSKNCFVTRIRLLDSNVIECTLSVESTGQECLEAVAQRLELRETHYFGLWFLSKSQQARWVELEKPLKKHLDKFANEPLLFFGVMFYVPNVSWLQQEATRYQYYLQVKKDVLEGRLRCTLDQVIRLAGLAVQADFGDYNQFDSQDFLREYVLFPMDLALEEAVLEELTQKVAQEHKAHSGILPAEAELMYINEVERLDGFGQEIFPVKDNHGNCVHLGIFFMGIFVRNRIGRQAVIYRWNDMGNITHNKSTILVELINKEETALFHTDDIENAKYISRLFATRHKFYKQNKICTEQSNSPPPIRRQPTWSRSSLPRQQPYILPPVHVQCGEHYSETHTSQDSIFHGNEEALYCNSHNSLDLNYLNGTVTNGSVCSVHSVNSLNCSQSFIQASPVSSNLSIPGSDIMRADYIPSHRHSAIIVPSYRPTPDYETVMRQMKRGILHTDSQSQSLRNLNIINTHAYNQPEDLVYSQPEMRERHPYTVPYGPQGVYSNKLVSPSDQRNPKNNVVPSKPGASAISHTVSTPELANMQLQGSHNYSTAHMLKNYLFRPPPPYPRPRPATSTPDLASHRHKYVSGSSPDLVTRKVQLSVKTFQEDSSPVVHQSLQEVSEPLTATKHHGTVNKRHSLEVMNSMVRGMEAMTLKSLHLPMARRNTLREQGPPEEGSGSHEVPQLPQYHHKKTFSDATMLIHSSESEEEEEEAPESVPQIPMLREKMEYSAQLQAALARIPNKPPPEYPGPRKSVSNGALRQDQASLPPAMARARVLRHGPAKAISMSRTDPPAVNGASLGPSISEPDLTSVKERVKKEPVKERPVSEMFSLEDSIIEREMMIRNLEKQKMAGLEAQKRPLMLAALNGLSVARVSGREENRVDATRVPMDERFRTLKKKLEEGMVFTEYEQIPKKKANGIFSTAALPENAERSRIREVVPYEENRVELIPTKENNTGYINASHIKVVVGGAEWHYIATQGPLPHTCHDFWQMVWEQGVNVIAMVTAEEEGGRTKSHRYWPKLGSKHSSATYGKFKVTTKFRTDSVCYATTGLKVKHLLSGQERTVWHLQYTDWPDHGCPEDVQGFLSYLEEIQSVRRHTNSMLEGTKNRHPPIVVHCSAGVGRTGVLILSELMIYCLEHNEKVEVPMMLRLLREQRMFMIQTIAQYKFVYQVLIQFLQNSRLI

These are yes or no findings as the source states them, for the method shown. In cells and extracts the contact can be indirect. These calls come from enrichment with a bait or labelling near it, and not all partners need be listed.
